Results: PubChem BioAssay AID248 (DTP/NCI, 2004)
The list shows only some results of the screen, not a fair sample: it gathers tests that were run many times, whatever their T/C, doses with no T/C, and many T/C values between a quarter and a half above the control. Further doses and runs are listed elsewhere. T/C gives the treated animals as a percentage of the vehicle group. Some entries give survivors of the animals treated and no T/C: the source files T/C as zero there, which appears to mark a toxic dose or a test without result, not a measured value. Some doses without a T/C left all or most animals alive at the check, yet need not have been tolerated: survival well below the control is almost never listed, so the zero probably covers shortened survival too. Counts of survivors are from the toxicity check (mostly the fifth day) where no day follows; animals may have died later. Schedules are NCI's codes, taken here to give the interval after Q, in days (D) or hours (H), and the number of doses after X. Some schedules carry Z or #; the key to these is not given. Some entries were tested several times; the values are given in rising order. Where survival is the endpoint, the PubChem record calls one and a half times the control and up active, and a quarter to a half above the control has no call in these data; cut-offs in other NCI protocols can differ. Some T/C values are followed by the survivors on the day toxicity was checked, most often the fifth; where none is given, no animal had died by that day. Additions like (4×) stand for listed records that agree.

Test system: L1210 leukemia ip in BDF1 mice, survival T/C
Assay: NCI In Vivo Anticancer Drug Screen. Data for tumor model L1210 Leukemia (intraperitoneal) in B6D2F1 (BDF1) mice
Details: T/C endpoint: mean survival time, higher T/C = longer survival
[1] = dose: 500.0 mg/kg/injection, schedule: Q01DX Z (oral), vehicle: carboxymethylcellulose (CMC)
[2] = dose: 100.0 mg/kg/injection, schedule: Q01DX009 (ip), vehicle: saline with Tween-80
[3] = dose: 400.0 mg/kg/injection, schedule: Q01DX001 (ip), vehicle: saline with Tween-80

## CC(=O)OCC1OC(n2ncc(=O)[nH]c2=O)C(OC(C)=O)C1OC(C)=O (centres undefined)
dose: 12.0 mg/kg/injection, schedule: Q01DX Z (oral), vehicle: carboxymethylcellulose (CMC)
  T/C: 128 % of control
dose: 16.0 mg/kg/injection, schedule: Q03HX024 (ip), vehicle: other
  T/C: 131 % of control
dose: 16.0 mg/kg/injection, schedule: Q03HX024 (oral), vehicle: other
  T/C: 127 % of control
dose: 18.0 mg/kg/injection, schedule: Q01DX Z (oral), vehicle: carboxymethylcellulose (CMC)
  T/C: 132 and 136 % of control
dose: 27.0 mg/kg/injection, schedule: Q01DX Z (oral), vehicle: carboxymethylcellulose (CMC)
  T/C: 135 % of control
dose: 31.0 mg/kg/injection, schedule: Q01DX Z (ip), vehicle: carboxymethylcellulose (CMC)
  T/C: 135 % of control
dose: 31.0 mg/kg/injection, schedule: Q01DX Z (sc), vehicle: carboxymethylcellulose (CMC)
  T/C: 144 % of control
dose: 35.0 mg/kg/injection, schedule: Q01DX Z (im), vehicle: carboxymethylcellulose (CMC)
  T/C: 125 and 130 % of control
dose: 41.0 mg/kg/injection, schedule: Q01DX Z (oral), vehicle: carboxymethylcellulose (CMC)
  T/C: 146 % of control
dose: 41.66 mg/kg/injection, schedule: Q#B X Z (ip), vehicle: carboxymethylcellulose (CMC)
  T/C: 114, 116, 133, 137 % of control
dose: 55.0 mg/kg/injection, schedule: Q01DX Z (im), vehicle: carboxymethylcellulose (CMC)
  T/C: 136 % of control
dose: 61.66 mg/kg/injection, schedule: Q#B X Z (ip), vehicle: carboxymethylcellulose (CMC)
  survivor count: 6 of 6
dose: 62.0 mg/kg/injection, schedule: Q01DX Z (ip), vehicle: carboxymethylcellulose (CMC)
  T/C: 142 % of control
dose: 62.0 mg/kg/injection, schedule: Q01DX Z (oral), vehicle: carboxymethylcellulose (CMC)
  T/C: 146 % of control
dose: 62.0 mg/kg/injection, schedule: Q01DX Z (sc), vehicle: carboxymethylcellulose (CMC)
  T/C: 135 % of control
dose: 62.5 mg/kg/injection, schedule: Q01DX009 (ip), vehicle: saline
  T/C: 130 and 136 % of control
dose: 64.0 mg/kg/injection, schedule: Q01DX009 (ip), vehicle: other
  T/C: 131 % of control
dose: 64.0 mg/kg/injection, schedule: Q01DX009 (oral), vehicle: other
  T/C: 131 % of control
dose: 64.0 mg/kg/injection, schedule: Q03HX024 (ip), vehicle: other
  T/C: 140 % of control
dose: 64.0 mg/kg/injection, schedule: Q03HX024 (oral), vehicle: other
  T/C: 141 % of control
dose: 83.33 mg/kg/injection, schedule: Q#B X Z (ip), vehicle: carboxymethylcellulose (CMC)
  T/C: 147 % of control
dose: 125.0 mg/kg/injection, schedule: Q01DX009 (ip), vehicle: saline
  T/C: 131 and 142 % of control
dose: 125.0 mg/kg/injection, schedule: Q01DX Z (ip), vehicle: carboxymethylcellulose (CMC)
  T/C: 132 and 138 % of control
dose: 125.0 mg/kg/injection, schedule: Q01DX Z (oral), vehicle: carboxymethylcellulose (CMC)
  T/C: 138 % of control
dose: 125.0 mg/kg/injection, schedule: Q01DX Z (sc), vehicle: carboxymethylcellulose (CMC)
  T/C: 124, 127, 135, 137 % of control
dose: 128.0 mg/kg/injection, schedule: Q01DX009 (ip), vehicle: other
  T/C: 128 % of control
dose: 128.0 mg/kg/injection, schedule: Q01DX009 (oral), vehicle: other
  T/C: 135 % of control
dose: 140.0 mg/kg/injection, schedule: Q#B X Z (ip), vehicle: carboxymethylcellulose (CMC)
  survivor count: 6 of 6
dose: 185.0 mg/kg/injection, schedule: Q01DX Z (sc), vehicle: carboxymethylcellulose (CMC)
  T/C: 135 % of control
dose: 250.0 mg/kg/injection, schedule: Q01DX006 (iv), vehicle: carboxymethylcellulose (CMC)
  T/C: 125 % of control
dose: 250.0 mg/kg/injection, schedule: Q01DX009 (ip), vehicle: saline
  T/C: 131 and 145 % of control
dose: 250.0 mg/kg/injection, schedule: Q01DX Z (ip), vehicle: carboxymethylcellulose (CMC)
  T/C: 125 and 141 % of control
dose: 250.0 mg/kg/injection, schedule: Q01DX Z (sc), vehicle: carboxymethylcellulose (CMC)
  T/C: 131 % of control
dose: 256.0 mg/kg/injection, schedule: Q01DX009 (ip), vehicle: other
  T/C: 132 % of control
dose: 256.0 mg/kg/injection, schedule: Q01DX009 (oral), vehicle: other
  T/C: 134 % of control
dose: 280.0 mg/kg/injection, schedule: Q01DX Z (sc), vehicle: carboxymethylcellulose (CMC)
  T/C: 132 % of control
dose: 300.0 mg/kg/injection, schedule: Q01DX010 (ip), vehicle: saline
  T/C: 142 and 145 % of control
dose: 333.33 mg/kg/injection, schedule: Q#B X Z (ip), vehicle: carboxymethylcellulose (CMC)
  T/C: 127 % of control
dose: 420.0 mg/kg/injection, schedule: Q01DX Z (sc), vehicle: carboxymethylcellulose (CMC)
  T/C: 142 % of control
dose: 450.0 mg/kg/injection, schedule: Q01DX010 (ip), vehicle: saline
  T/C: 130 % of control
dose: 500.0 mg/kg/injection, schedule: Q01DX006 (iv), vehicle: carboxymethylcellulose (CMC)
  T/C: 126 % of control [5 of 6 alive]
dose: 500.0 mg/kg/injection, schedule: Q01DX009 (ip), vehicle: saline
  T/C: 137 and 140 % of control [5 of 6 alive]
dose: 500.0 mg/kg/injection, schedule: Q01DX Z (ip), vehicle: carboxymethylcellulose (CMC)
  T/C: 135 and 142 % of control
[1]
  T/C: 138 % of control
  survivor count: 4 of 7
dose: 512.0 mg/kg/injection, schedule: Q01DX009 (ip), vehicle: other
  T/C: 148 % of control
dose: 512.0 mg/kg/injection, schedule: Q04DX003 (oral), vehicle: other
  T/C: 126 % of control
dose: 675.0 mg/kg/injection, schedule: Q01DX010 (ip), vehicle: saline
  T/C: 135 % of control
dose: 1000.0 mg/kg/injection, schedule: Q01DX006 (iv), vehicle: carboxymethylcellulose (CMC)
  T/C: 125 % of control
dose: 1000.0 mg/kg/injection, schedule: Q01DX009 (ip), vehicle: saline
  T/C: 131 and 142 % of control
dose: 1000.0 mg/kg/injection, schedule: Q01DX Z (ip), vehicle: carboxymethylcellulose (CMC)
  survivor count: 3 of 6
dose: 1000.0 mg/kg/injection, schedule: Q01DX Z (oral), vehicle: carboxymethylcellulose (CMC)
  survivor count: 4 of 7
dose: 1000.0 mg/kg/injection, schedule: Q03DX Z (ip), vehicle: carboxymethylcellulose (CMC)
  T/C: 136 % of control
dose: 1014.0 mg/kg/injection, schedule: Q01DX010 (ip), vehicle: saline
  T/C: 135 % of control
dose: 2000.0 mg/kg/injection, schedule: Q01DX Z (oral), vehicle: carboxymethylcellulose (CMC)
  survivor count: 3 of 7

## CC[N+](CC)(CC)CCCC[N+](CC)(CC)CC
dose: 100.0 mg/kg/injection, schedule: Q04DX003 (ip), vehicle: water
  survivor count: 3 of 6
dose: 200.0 mg/kg/injection, schedule: Q04DX003 (ip), vehicle: water
  survivor count: 0 of 6
dose: 400.0 mg/kg/injection, schedule: Q04DX003 (ip), vehicle: water
  survivor count: 0 of 6

## CCOC(=O)CNC(=O)Nc1ccc(C(=O)O)cc1
dose: 400.0 mg/kg/injection, schedule: Q01DX009 (ip), vehicle: saline with Tween-80
  survivor count: 3 of 6

## CN(N)C(=O)Nc1ccccc1[N+](=O)[O-]
dose: 300.0 mg/kg/injection, schedule: Q01DX001 (ip), vehicle: carboxymethylcellulose (CMC)
  survivor count: 2 of 6

## O=C(NC(=S)Nc1ccc(F)cc1)c1cccc([N+](=O)[O-])c1
dose: 50.0 mg/kg/injection, schedule: Q01DX009 (ip), vehicle: saline with Tween-80
  T/C: 88, 104, 105 % of control (2×)
[2]
  T/C: 89 [2 of 3 alive] and 96 % of control [5 of 6 alive]
  survivor count: 1 of 3 and 3 of 6
dose: 200.0 mg/kg/injection, schedule: Q01DX009 (ip), vehicle: saline with Tween-80
  survivor count: 0 of 3 and 2 of 6
dose: 200.0 mg/kg/injection, schedule: Q04DX003 (ip), vehicle: saline with Tween-80
  survivor count: 0 of 6
[3]
  survivor count: 1 of 6
dose: 400.0 mg/kg/injection, schedule: Q04DX002 (ip), vehicle: saline with Tween-80
  survivor count: 0 of 3 and 1 of 6

## O=C(COc1ccc(Cl)cc1Cl)NCCSCc1ccccc1
dose: 200.0 mg/kg/injection, schedule: Q01DX009 (ip), vehicle: Klucel (hydroxypropylcellulose) (HPC)
  survivor count: 6 of 6

## CC(C)c1ccc(C(c2ccc(C(C)C)cc2)c2ccc(C(C)C)cc2)cc1
[3]
  survivor count: 6 of 6
